Reference: PubChem BioAssay AID1159584 (Peter MacCallum Cancer Centre, 2016)
This is one part, drawn at random, of about 18,000 reagents tested. Not all columns of the deposit are shown. Not stated in the record: the amount of reagent, the time to read-out.

- Purpose: 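Genes that CDH1-null MCF10A cells selectively depend on to survive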 (primary screen)
- Cell system: human MCF10A breast epithelial cells, parental and CDH1-null
- Knock-down reagent: siRNA against human genes
- Measurement: 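Cell viability by CellTiter-Glo ATP luminescence, each line scaled to the mean of mock wells across plates, then CDH1-null over parental ratio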
- Reading the numbers: CDH1-null / parental viability ratio: higher = CDH1-null cells survive relatively better than parental; CDH1-null viability vs mock: higher = more viable CDH1-null cells

gene knocked down,CDH1-null / parental viability ratio,CDH1-null viability vs mock (fraction of mock)
DLX6 (distal-less homeobox 6),0.93,0.66
ARPC3 (actin related protein 2/3 complex subunit 3),0.81,0.87
SPACDR (sperm acrosome developmental regulator),0.86,0.74
CADM3 (cell adhesion molecule 3),0.88,0.99
LELP1 (late cornified envelope like proline rich 1),0.7,0.6
ZFAND5 (zinc finger AN1-type containing 5),0.85,0.87
ZNF181 (zinc finger protein 181),0.83,0.6
WDR11 (WD repeat domain 11),1.2,0.89
CCR10 (C-C motif chemokine receptor 10),1.54,0.83
TDRD3 (tudor domain containing 3),0.98,0.82
BCAS3 (BCAS3 microtubule associated cell migration factor),1.09,0.94
TLX3 (T cell leukemia homeobox 3),1.27,0.57
TNFSF9 (TNF superfamily member 9),1.36,0.9
DGKG (diacylglycerol kinase gamma),0.89,0.72
PRKAR2A,1.11,0.92

Individual results from the entries so far:
Result for WDR11 (WD repeat domain 11) in “CDH1-null / parental viability ratio”: 1.2
Value of TLX3 (T cell leukemia homeobox 3) under “CDH1-null / parental viability ratio”: 1.27
Result for DGKG (diacylglycerol kinase gamma) in “CDH1-null viability vs mock (fraction of mock)”: 0.72
Value of PRKAR2A in “CDH1-null / parental viability ratio”: 1.11

Additional entries follow:
gene knocked down,CDH1-null / parental viability ratio,CDH1-null viability vs mock (fraction of mock)
AHDC1 (AT-hook DNA binding motif containing 1),1.13,0.54
PDGFRA (platelet derived growth factor receptor alpha),0.93,0.8
ZNF571 (zinc finger protein 571),1.09,0.86
AK7 (adenylate kinase 7),1.09,1.12
MRPL37 (mitochondrial ribosomal protein L37),1.44,0.72
NAT10 (N-acetyltransferase 10),1.05,1.03
FECH (ferrochelatase),1,0.66
MS4A13 (membrane spanning 4-domains A13),1.14,0.74
GNL3 (G protein nucleolar 3),1.13,0.62
KLK3 (kallikrein related peptidase 3),1.42,0.57
PDAP1 (PDGFA associated protein 1),0.99,0.83
"SUPT4H1 (SPT4 homolog, DSIF elongation factor subunit)",0.88,0.6
CPNE3 (copine 3),0.95,0.84
